Results are given in words; binding and its absence hold for the method and conditions named. Binding seen in cells or lysates may run through a third protein. Some results given as binding are weak or reduced against the parent protein; the word gives no strength.

The target of the test is CsgG (in vivo, in E. coli cells) (E. coli) (UniProt P0AEA2). Description: cross-linking; disulfide linkages induced in vivo by incubation with diamide; data not shown.

B1: CsgG (in vivo, in E. coli cells) (protein, UniProt P0AEA2 16-277)
chain: CLTAPPKEAARPTLMPRAQSYKDLTHLPAPTGKIFVSVYNIQDETGQFKPYPASNFSTAVPQSATAMLVTALKDSRWFIPLERQGLQNLLNERKIIRAAQENGTVAINNRIPLQSLTAANIMVEGSIIGYESNVKSGGVGARYFGIGADTQYQLDQIAVNLRVVNVSTGEILSSVNTSKTILSYEVQAGVFRFIDYQRLLEGEVGYTSNEPVMLCLMSAIETGVIFLINDGIDRGLWDLQNKAERQNDILVKYRHMSVPPES
In the case of B1, the binding result is given as “binds”.
